Experimental data as given in patent publication US20180002412A1 (UNIVERSITY OF CONNECTICUT, published 2018).
Results are given in words; binding and its absence hold for the method and conditions named. Some entries that bind do so weakly or less than the wild type.

Sequences of proteins named here, by UniProt entry; tags and fusion partners are left off. Residues count along the entry.
UniProt P08238, residues 2-724: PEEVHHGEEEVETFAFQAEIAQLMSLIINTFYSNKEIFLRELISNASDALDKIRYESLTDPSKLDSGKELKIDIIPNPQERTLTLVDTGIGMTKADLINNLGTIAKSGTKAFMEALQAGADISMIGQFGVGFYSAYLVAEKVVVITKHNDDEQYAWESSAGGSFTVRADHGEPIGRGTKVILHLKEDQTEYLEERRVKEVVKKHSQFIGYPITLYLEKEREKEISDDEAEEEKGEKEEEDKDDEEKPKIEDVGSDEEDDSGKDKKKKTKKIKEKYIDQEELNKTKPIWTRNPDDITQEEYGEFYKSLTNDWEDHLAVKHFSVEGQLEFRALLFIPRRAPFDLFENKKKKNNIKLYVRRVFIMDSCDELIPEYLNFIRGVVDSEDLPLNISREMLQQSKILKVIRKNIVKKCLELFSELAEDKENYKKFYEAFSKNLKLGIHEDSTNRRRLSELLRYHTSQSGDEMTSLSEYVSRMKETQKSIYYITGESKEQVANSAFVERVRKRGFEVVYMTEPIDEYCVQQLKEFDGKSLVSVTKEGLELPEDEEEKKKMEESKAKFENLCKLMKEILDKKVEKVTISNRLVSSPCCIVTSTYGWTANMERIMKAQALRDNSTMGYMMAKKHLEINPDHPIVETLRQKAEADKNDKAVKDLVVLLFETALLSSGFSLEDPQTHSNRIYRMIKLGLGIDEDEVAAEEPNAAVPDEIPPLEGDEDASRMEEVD

Experiments:
[1] = target: HSP90 (endogenous, from MDA-MB-231 cells and MDA-MB-231 xenograft tumor lysates) (human) (UniProt P08238); assay: immunoprecipitation from cytosolic and plasma membrane fractions, immunoblot (FIG. 4A legend)
[2] = target: HSP90 (endogenous, from MDA-MB-231 cells and MDA-MB-231 xenograft tumor lysates) (human) (UniProt P08238); assay: immunoprecipitation from xenograft tumor lysates with 15 µg HCAb, immunoblot (FIG. 11 legend)
[3] = target: HSP90 (endogenous, from MDA-MB-231 cells and MDA-MB-231 xenograft tumor lysates) (human) (UniProt P08238); assay: immunoprecipitation from MDA-MB-231 1% Triton X-100 + 0.1% SDS lysate, gel band identified by LC-MS/MS
[4] = target: HSP90 (endogenous, from MDA-MB-231 cells and MDA-MB-231 xenograft tumor lysates) (human) (UniProt P08238); assay: immunoprecipitation from MDA-MB-231 xenograft tumor lysates, immunoblot with commercial HSP90 antibody
[5] = target: HSP90 (endogenous, from MDA-MB-231 cells and MDA-MB-231 xenograft tumor lysates) (human) (UniProt P08238); assay: immunoprecipitation from cytosolic and plasma membrane fractions of MDA-MB-231 cells, immunoblot with commercial HSP90 antibody

Measured: binding

B1: HCAb2 (Fc fusion, not shown: a dimerising Fc or GST)
heavy: QVQLVQSGAEVKKPGASVRVSCKIFGYRLSELSIHWVRQAPGKGLEWMGWISGWDGNTTYTQNLQGRVTMTTDTSTNSAYMELRSLRSDDTAVYYCARASGYNYSYRPLDFWGRGTLVTVSS
binds: [1] | [2] | [3] | [4] | [5]
